In paper PMC9279676, “ERK2 MAP kinase regulates SUFU binding by multisite phosphorylation of GLI1” (Life Science Alliance, 2022) one finds binding data, which are given here for eight molecules.

In test [1] the target is T1, GST-GLI1^S102,S116 (GST-GLI1_(68-232), only S102 and S116 intact), mock treated (human) (UniProt P08151).
T1 sequence: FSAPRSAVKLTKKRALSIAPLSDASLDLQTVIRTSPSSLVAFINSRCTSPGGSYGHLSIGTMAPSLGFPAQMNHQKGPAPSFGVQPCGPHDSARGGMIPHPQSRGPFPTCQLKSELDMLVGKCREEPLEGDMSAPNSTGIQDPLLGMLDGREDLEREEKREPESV
Put plainly: pull-down; purified GST-GLI1_(68-232) variants (mock treated or ERK2 phosphorylated), 0 or 1.25-80 nM, on glutathione-Sepharose beads; ∼1 pmol 35S-SUFU in 200 μl; 15 min at 30°C, then 1 h at room temperature; Binding Buffer (20 mM Tris-HCl pH 7.5, 125 mM KOAc, 0.5 mM EDTA, 5 mM DTT, 0.1% Tween20, 12.5% glycerol) + 1 mg/ml BSA; bound SUFU quantified by SDS-PAGE and Phosphorimager; Kd from binding isotherms; only the target purified.

Test [2] deals with T2, GST-GLI1^S102,S130 (GST-GLI1_(68-232), only S102 and S130 intact), mock treated (human) (UniProt P08151).
T2 sequence: T1 sequence with S49A, A63S
The test is described as above.

In test [3] the target is T3, GST-GLI1^S116,S130 (GST-GLI1_(68-232), only S116 and S130 intact), mock treated (human) (UniProt P08151).
T3 sequence: T1 sequence with S35A, A63S
The description is as above.

Test [4] concerns the target T4, GST-GLI1^S116,S130, phosphorylated by ERK2 (human) (UniProt P08151).
T4 sequence (chain, phosphorylated by ERK2; intact SP sites S116, S130): T1 sequence with S35A, A63S
The test is described as above.

The target of test [5] is T5, GST-GLI1^S130 (GST-GLI1_(68-232), only S130 intact), mock treated (human) (UniProt P08151).
T5 sequence: T1 sequence with S35A, S49A, A63S
The description is as above.

In test [6] the target is T6, GST-GLI1^SSSS (GST-GLI1_(68-232) S70A S86A S146A), mock treated (human) (UniProt P08151).
T6 sequence: T1 sequence with A63S, A134S
The test is described as above.

Test [7] has as its target T7, GST-GLI1^SSSS, phosphorylated by ERK2 (human) (UniProt P08151).
T7 sequence (chain, phosphorylated by ERK2; intact SP sites S102, S116, S130, S201): T1 sequence with A63S, A134S
The description is as above.

Test [8] has as its target T8, GST-SUFU (fusion of GST to full-length human SUFU) (human) (UniProt Q9UMX1).
T8 sequence: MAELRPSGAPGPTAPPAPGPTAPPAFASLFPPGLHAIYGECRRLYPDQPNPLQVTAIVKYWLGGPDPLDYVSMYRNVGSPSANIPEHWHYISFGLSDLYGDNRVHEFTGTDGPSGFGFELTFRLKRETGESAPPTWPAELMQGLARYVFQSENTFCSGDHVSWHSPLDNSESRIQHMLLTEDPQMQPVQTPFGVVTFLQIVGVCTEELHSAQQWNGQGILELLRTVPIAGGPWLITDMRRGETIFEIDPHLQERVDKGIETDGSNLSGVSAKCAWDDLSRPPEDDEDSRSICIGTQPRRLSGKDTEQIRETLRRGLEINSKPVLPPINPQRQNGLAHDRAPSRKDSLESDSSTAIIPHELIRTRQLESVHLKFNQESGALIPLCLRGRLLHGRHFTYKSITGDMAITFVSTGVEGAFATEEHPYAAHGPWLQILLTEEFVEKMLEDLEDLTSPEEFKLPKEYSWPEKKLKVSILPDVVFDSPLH
Put plainly: pull-down; purified GST-SUFU, 1.25-80 nM, captured on glutathione-Sepharose beads; ∼1 pmol 35S-GLI1 (1-232 or full length) in 200 μl; 15 min at 30°C, then 1 h at room temperature; Binding Buffer + 1 mg/ml BSA; bound GLI1 quantified by SDS-PAGE and Phosphorimager; Kd from binding isotherms; only the target purified.

Numbering of substitutions follows the chain as printed. In names and notes the source's numbering stands. No constants are given. Whether binding was seen depends on the method and setting. Binding seen in cells or lysates may run through a third protein. Some binding calls cover weakened binding; strength is not graded here. Where a sequence is shown, tags or fusion partners need not be part of it.

B1: full-length human SUFU protein, 35S-radiolabeled (natural protein, UniProt Q9UMX1-1 1-484, looked up)
chain: T8 sequence
modifications: [35S]-methionine label
notes: human SUFU, full length, residues 1-484, from plasmid pGEM4Z-SUFU; also called 35S-SUFU; radiolabeled SUFU; source: in vitro transcription and translation (SP6, Promega), partially purified by ammonium sulfate precipitation
B1: the binding result in test [1], in test [2], in test [3], in test [4], in test [5] and in test [6] was “binds” in each case. For the same molecule, the binding result in test [7] is on record as “binds”.

B2: GLI1_(1-232) S116E, 35S-radiolabeled (domain or fragment, UniProt P08151-1 1-232)
chain: MFNSMTPPPISSYGEPCCLRPLPSQGAPSVGTEGLSGPPFCHQANLMSGPHSYGPARETNSCTEGPLFSSPRSAVKLTKKRALSISPLSDASLDLQTVIRTSPSSLVAFINSRCTEPGGSYGHLSIGTMSPSLGFPAQMNHQKGPSPSFGVQPCGPHDSARGGMIPHPQSRGPFPTCQLKSELDMLVGKCREEPLEGDMSSPNSTGIQDPLLGMLDGREDLEREEKREPESV
modifications: [35S]-methionine label
With B2, the binding entry in test [8] is listed as “binds”.

B3: GLI1_(1-232) S89L (tumor-derived), 35S-radiolabeled (domain or fragment, UniProt P08151-1 1-232)
chain: B2 chain with S89L, E116S
modifications: [35S]-methionine label
Turning to B3, the binding entry in test [8] is given as “binds”.

B4: GLI1_(1-232) S84P (tumor-derived), 35S-radiolabeled (domain or fragment, UniProt P08151-1 1-232)
chain: B2 chain with S84P, E116S
modifications: [35S]-methionine label
B4: the binding entry in test [8] was “binds”.

B5: GLI1_(1-232) R81W (tumor-derived), 35S-radiolabeled (domain or fragment, UniProt P08151-1 1-232)
chain: B2 chain with R81W, E116S
modifications: [35S]-methionine label
For B5, the binding result in test [8] is recorded as “binds”.

B6: GLI1_(1-232) S130E, 35S-radiolabeled (domain or fragment, UniProt P08151-1 1-232)
chain: B2 chain with E116S, S130E
modifications: [35S]-methionine label
Regarding B6, in test [8], the binding result is “binds”.

B7: GLI1_(1-232) L88M (tumor-derived), 35S-radiolabeled (domain or fragment, UniProt P08151-1 1-232)
chain: B2 chain with L88M, E116S
modifications: [35S]-methionine label
For B7, the binding entry in test [8] is on record as “binds”.

B8: GLI1_(1-232) S116E S130E, 35S-radiolabeled (domain or fragment, UniProt P08151-1 1-232)
chain: B2 chain with S130E
modifications: [35S]-methionine label
Consider B8, for which, in test [8], the binding result is on record as “binds”.
